# “And” between values parts separate entries of the source, which are not always exact repeats. Identical values can stand only once. Out of some 230,000 compounds screened, about 310 (0.13%) were called active. This list was built around the results that the source calls inconclusive (neither active nor inactive); the mix of calls is not that of the screen. Calls come from the whole dose curve; as a rule, active = well fitted activation curve with a large enough effect; inconclusive = small, poorly fitted or top-dose-only effect; inactive = no such curve, though single readings can be large or run the other way. Where the call is inconclusive, the potency comes from a doubtful curve fit. Residues, ends and D or L forms follow the SMILES beside them. *: point of attachment. Boc = CC(C)(C)OC(=O)*; OBn = c1ccc(CO*)cc1
# Assay: qHTS Multiplex Assay to Identify Dual Action Probes in a Cell Model of Huntington: Cytoprotection (ATP); note: nearly all actives have a fitted effect of over 45% in size;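 for cytoprotection (ATP increase): toxic huntingtin expression switched on by the ecdysone agonist tebufenozide; % of control where 0% means no effect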
# Conditions: PC12 HTT-Q103 induced, ATP luminescence, 40 h; cytoprotection (ATP increase): at 56.4 µM (top of the series) unless noted
# Summary of the method: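 Stable PC12 Q103-GFP cells in serum-supplemented, phenol red-free DMEM; induction by tebufenozide at 100 nM final; compound dose series; cell viability quantified luminescently from ATP.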
# Potency is the fitted concentration of half-maximal effect.
Compound,Potency,cytoprotection (ATP increase)
CC(NC(=O)OC(C)(C)C)C(=O)NC(CCC(=O)OCc1ccccc1)C(N)=O (stereo not drawn) (Boc-Ala-Glu(OBn)-NH2; configuration not given here),"inconclusive: 1.78 µM [activator, partial curve, poor fit]",–
CC(C)CCNC(=S)Nc1ccccn1,"inconclusive: 4.47 µM [activator, single point]",–
Cn1cc(C(=O)NC2CCCCCCC2)c(=O)c2cc(S(=O)(=O)N3CCCC3)ccc21,"inconclusive: 0.1 µM [activator, full curve, poor fit]",–
NC(=O)CSc1nccn1Cc1ccccc1,"inconclusive: 0.0071 µM [activator, full curve, poor fit]",–
CCOC(=O)CC(NC(=O)c1cc2cc(Br)ccc2oc1=O)c1cccc([N+](=O)[O-])c1 (centres undefined),"inconclusive: 1.12 µM [activator, single point]",–
Cc1ccc(C)c(-c2ccc(C(=O)O)o2)c1,"inconclusive: 14.1 µM [activator, partial curve]",–
CCCCCCCCCCCCCCC[C@H](O)[C@H](N)CO,"inconclusive: 0.501 µM [activator, full curve, poor fit]",–
N#C/C(=C/c1ccc(N2CCOCC2)o1)c1ccc(Br)cc1,–,inactive: 9.5%
CCCNC(=O)CC1C(=O)N(Cc2ccccc2)C(C)c2nc3ccccc3n21 (centres undefined),–,inactive: 15.6%
Nc1ccn([C@H]2CC[C@@H](CO)O2)c(=O)n1,"inconclusive: 39.8 µM [activator, single point]",–
COc1ccc(C(=O)N/N=C/C(Br)=C/c2ccccc2)cc1,"inconclusive: 3.16 µM [activator, single point]",–
COc1ccc(/C(N)=N/OC(=O)CN(C)S(=O)(=O)c2ccc(C)cc2)cc1,–,inactive: -44.5%
C=CCn1c(CNC(=O)c2cccs2)nnc1SCC(=O)Nc1ccc(C(=O)O)cc1,"inconclusive: 0.1 µM [activator, full curve, poor fit]",–
COC(=O)C/C=C\[C@@H](C)[C@@H](/C=N\O[C@@H]1O[C@H](COC(C)=O)[C@H](OC(C)=O)[C@H](OC(C)=O)[C@H]1OC(C)=O)OC,"inconclusive: 0.199 µM [activator, full curve, poor fit]",–
CN(C(=O)C(Cl)Cl)c1ccc(OC(=O)c2ccco2)cc1,"inconclusive: 0.355 µM [activator, partial curve]",–
NC[C@](O)(CS(=O)(=O)O)c1ccc(Cl)cc1,"inconclusive: 0.112 µM [activator, full curve]",–
CC(C)[C@@H](CC(=O)N[C@@H]1CCCC[C@H]1C(=O)N[C@H](CC(=O)N[C@@H](CCC(=O)O)CC(=O)O)Cc1ccccc1)NC(=O)C[C@H](Cc1c[nH]c2ccccc12)NC(=O)[C@@H]1CNCC[C@H]1N,–,inactive: 0.312% [at 1.9 µM]
CC1(C)CCC(C)(C)NC(=S)N1,"inconclusive: 3.16 µM [activator, single point]",–
Cc1ccc(-n2c(O)c(/C=N/c3ncn[nH]3)c3ccccc3c2=O)cc1,"inconclusive: 0.112 µM [activator, full curve, poor fit]",–
CCc1cccc(C)c1NC(=O)c1cccc(N(C)C)c1,–,inactive: -16.7%

Compound,Potency,cytoprotection (ATP increase)
Cc1onc(-c2c(F)cccc2Cl)c1C(=O)N[C@@H]1C(=O)N2[C@H]1SC(C)(C)[C@H]2C(=O)O,"inconclusive: 10 µM [activator, partial curve, poor fit]",–
Cc1cc(C)cc(SCc2noc(C(=O)NCCCN3CCOCC3)c2C(=O)NCCCN2CCOCC2)c1,"inconclusive: 0.891 µM [activator, single point]",–
CCOC(=O)C1(Cc2ccccc2C(F)(F)F)CCN(C(C)CCn2cccn2)CC1 (centres undefined),"inconclusive: 5.62 µM [activator, single point]",–
O=S(=O)(c1ccccc1)N1CCN(C2CCCCCCC2)CC1,–,inactive: -20.9% [at 0.074 µM]
COc1ccc2c(c1)c(CC(=O)O)c(C)n2C(=O)c1ccc(Cl)cc1,"inconclusive: 447 nM [activator, full curve] and inconclusive: 1.26 µM [activator, partial curve]",–
Cc1ccc2c(C(=O)CN3CCC4(CC3)OCCO4)c(C)[nH]c2c1,"inconclusive: 5.62 µM [activator, single point]",–
COc1cc(/C=N/Nc2snc(SC)c2C#N)cc(OC)c1OC,–,inactive: -57.7%
Oc1cc(O)c2c(c1)O[C@H](c1ccc(O)c(O)c1)[C@H](O)C2,"inconclusive: 0.355 µM [activator, full curve, poor fit]",–
Nc1c(C(=O)c2ccc(Cl)cc2)sc2nsc(SCCN3CCOCC3)c12,–,inactive: 1.77% [at 10 µM]
CC(C)c1nnc(SCC(=O)Nc2ccc3c(c2)OCO3)n1C,–,inactive: -1.51% [at 10 µM]
O=C(c1ccco1)N1CCC2(CCCN(Cc3ccncc3)C2)CC1,"inconclusive: 3.55 µM [activator, single point]",–
O=C(C1=C[C@H](C2CCCCC2)C[C@H](OCCCCO)O1)N1CCN(Cc2ccccc2)CC1,–,inactive: 20.8% [at 10 µM]
N#C/C(=C\c1cccc([N+](=O)[O-])c1)c1nnc2n1CCCCC2,"inconclusive: 6.31 µM [activator, partial curve]",–
CC(C)CN1CCC(CNC(=O)CCc2nnc(Cc3c[nH]c4ccccc34)o2)CC1,"inconclusive: 5.62 µM [activator, single point]",–
N#Cc1c(-c2ccc(F)cc2)noc1N,"inconclusive: 1.78 µM [activator, partial curve]",–
Cc1ccc(C(=O)C[n+]2ccc3ccccc3c2)cc1,"inconclusive: 3.55 µM [activator, single point]",–
COc1cc(C2CC(=O)c3c([nH]c(C(=O)OCCOC(C)C)c3C)C2)cc(OC)c1OC (centres undefined),–,inactive: 9.16% [at 10 µM]
Cc1ccc(OCCCCn2ccnc2C)c(C)c1,"inconclusive: 0.891 µM [activator, full curve, poor fit]",–
COc1ccc(NC(=O)N2CC3(CCN(C(=O)c4cc(C(F)(F)F)cc(C(F)(F)F)c4)CC3)C2)cc1,–,inactive: 5.64%

# From PubChem BioAssay AID1471 (National Center for Advancing Translational Sciences (NCATS), 2008)
